According to patent US20260007643A1, “HIGHLY SOLUBLE FORMULATIONS OF HARMINE” (Reconnect Labs AG, priority 2022, published 2026):

Test: Bitterness rating of formulations in 5 volunteers on a 0-10 numeric rating scale
Assay type: in vivo, Human
Settings: Part 8, amount corresponding to 20 mg harmine freebase, sublingual area

COc1ccc2c(c1)[nH]c1c(C)nccc12 [Harmine, 7-methoxy-1-methyl-9H-pyrido[3,4-b]-indole]
Bitterness rating, Severity: none to mild

Harmine hemifumarate
Bitterness rating, Severity: none to mild
